Results are given in words; binding and its absence hold for the method and conditions named. In cells and extracts the contact can be indirect. Some results given as binding are weak or reduced against the parent protein; the word gives no strength. Where a sequence is shown, tags or fusion partners need not be part of it.

Amino acid sequences for entries named in this document (tags omitted).
UniProt Q04206: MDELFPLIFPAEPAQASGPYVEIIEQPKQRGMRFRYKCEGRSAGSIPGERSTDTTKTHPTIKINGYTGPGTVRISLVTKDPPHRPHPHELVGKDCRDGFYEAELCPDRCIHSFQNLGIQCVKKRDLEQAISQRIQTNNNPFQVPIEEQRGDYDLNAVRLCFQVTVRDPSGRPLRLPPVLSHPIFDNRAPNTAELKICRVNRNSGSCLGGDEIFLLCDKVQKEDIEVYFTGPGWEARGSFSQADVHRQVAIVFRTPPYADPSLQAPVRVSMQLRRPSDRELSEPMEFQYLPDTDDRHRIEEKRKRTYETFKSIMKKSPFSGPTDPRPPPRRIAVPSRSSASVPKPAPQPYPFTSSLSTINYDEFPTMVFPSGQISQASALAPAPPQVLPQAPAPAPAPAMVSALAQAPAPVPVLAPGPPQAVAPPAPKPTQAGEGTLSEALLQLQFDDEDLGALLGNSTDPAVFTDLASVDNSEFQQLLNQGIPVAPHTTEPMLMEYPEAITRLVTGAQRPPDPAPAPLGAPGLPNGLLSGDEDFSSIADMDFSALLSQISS

Consider one substance from publication PMC7212688.

This experiment concerns the target T1, Flag-tagged full-length human NKRF (human) (UniProt O15226).
T1 sequence: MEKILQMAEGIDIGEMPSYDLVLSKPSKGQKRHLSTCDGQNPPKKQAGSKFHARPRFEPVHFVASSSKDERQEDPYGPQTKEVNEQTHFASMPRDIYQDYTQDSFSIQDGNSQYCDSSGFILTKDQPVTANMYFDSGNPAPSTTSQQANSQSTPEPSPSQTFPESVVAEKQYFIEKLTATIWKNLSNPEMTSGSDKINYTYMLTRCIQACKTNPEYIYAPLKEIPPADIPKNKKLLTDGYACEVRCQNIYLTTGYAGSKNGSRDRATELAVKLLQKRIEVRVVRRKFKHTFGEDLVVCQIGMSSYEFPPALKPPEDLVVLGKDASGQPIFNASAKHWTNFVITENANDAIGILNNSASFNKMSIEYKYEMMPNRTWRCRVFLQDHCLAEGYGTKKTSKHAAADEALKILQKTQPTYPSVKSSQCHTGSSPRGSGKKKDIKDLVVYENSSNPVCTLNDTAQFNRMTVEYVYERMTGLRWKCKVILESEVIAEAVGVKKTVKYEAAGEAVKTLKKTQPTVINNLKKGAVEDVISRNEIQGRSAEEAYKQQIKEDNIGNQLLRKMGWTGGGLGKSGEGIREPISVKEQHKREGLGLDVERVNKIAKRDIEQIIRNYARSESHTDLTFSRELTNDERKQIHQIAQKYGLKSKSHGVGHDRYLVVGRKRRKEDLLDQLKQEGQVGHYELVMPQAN
Description: co-IP; 1 x 10^7 cells lysed in 50 mM Tris pH 7.4, 150 mM NaCl, 1% NP-40, 0.25% sodium deoxycholate; immunoprecipitated with anti-FLAG M2 magnetic beads at 4 °C overnight, washed five times; Western blot; cells with control or TROJAN (lncRNA) knockdown. Background: Immunoblotting shows a protein as a band on a membrane.

For RELA (from UniProt Q04206 1-551), the binding result is on record as “binds”.
